Results as given in article PMC11293442.
These are yes or no findings as the source states them, for the method shown. For part of these data: Binding seen in cells or lysates may run through a third protein. Some entries that bind do so weakly or less than the wild type. For part of these data: Tags and fused reporters may be left off the sequences shown.

Key:
[1] = target: T1, FLAG-mCntn4 (full-length pcDNA3.1-FLAG-mCntn4), on HEK293 cells (mouse (mCntn4)) (UniProt Q69Z26); test: cell adhesion (aggregation) assay; two populations of transfected HEK293 cells (with EGFP or DsRed) mixed 1:1 in suspension medium (10% HIFCS, 50 mM Hepes-NaOH pH 7.4, 10 mM CaCl2, 10 mM MgCl2), room temperature, gentle agitation, 90 min; aggregation index from fluorescence images
T1 sequence: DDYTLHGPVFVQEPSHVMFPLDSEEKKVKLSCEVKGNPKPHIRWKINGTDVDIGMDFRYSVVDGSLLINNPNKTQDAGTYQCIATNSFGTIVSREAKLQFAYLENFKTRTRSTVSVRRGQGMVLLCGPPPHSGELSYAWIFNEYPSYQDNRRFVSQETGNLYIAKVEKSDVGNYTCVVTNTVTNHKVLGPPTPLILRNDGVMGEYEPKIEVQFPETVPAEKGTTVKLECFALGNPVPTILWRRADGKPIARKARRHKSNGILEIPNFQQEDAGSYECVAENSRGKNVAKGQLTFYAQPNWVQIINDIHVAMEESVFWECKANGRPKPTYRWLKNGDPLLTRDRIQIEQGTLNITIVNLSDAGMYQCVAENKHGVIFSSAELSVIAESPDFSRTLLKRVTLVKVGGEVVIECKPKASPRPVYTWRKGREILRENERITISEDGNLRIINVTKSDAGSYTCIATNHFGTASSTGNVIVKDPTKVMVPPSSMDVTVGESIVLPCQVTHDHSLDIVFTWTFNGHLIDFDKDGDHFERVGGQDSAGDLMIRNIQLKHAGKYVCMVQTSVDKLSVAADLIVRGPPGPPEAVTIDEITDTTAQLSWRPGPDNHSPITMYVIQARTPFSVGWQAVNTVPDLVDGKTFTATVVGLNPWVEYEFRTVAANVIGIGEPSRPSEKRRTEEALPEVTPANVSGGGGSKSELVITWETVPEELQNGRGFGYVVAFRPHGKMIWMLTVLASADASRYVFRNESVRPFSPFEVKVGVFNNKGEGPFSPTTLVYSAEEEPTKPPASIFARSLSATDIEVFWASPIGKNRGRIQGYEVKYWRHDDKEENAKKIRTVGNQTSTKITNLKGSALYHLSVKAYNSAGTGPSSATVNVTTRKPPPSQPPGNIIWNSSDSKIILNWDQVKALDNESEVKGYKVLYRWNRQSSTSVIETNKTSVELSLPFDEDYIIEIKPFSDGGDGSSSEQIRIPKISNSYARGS

[2] = target: T2, native CNTN4 (CNTN4 expression plasmid coding for the native Cntn4 protein) (not stated (rat or mouse cDNA cloned)) (UniProt Q69Z26); test: co-IP; HEK293 cells transfected with the native CNTN4 plasmid or an empty vector; IP with an anti-CNTN4 antibody (normal IgG as control), Western blot for CNTN4 and APP
T2 sequence: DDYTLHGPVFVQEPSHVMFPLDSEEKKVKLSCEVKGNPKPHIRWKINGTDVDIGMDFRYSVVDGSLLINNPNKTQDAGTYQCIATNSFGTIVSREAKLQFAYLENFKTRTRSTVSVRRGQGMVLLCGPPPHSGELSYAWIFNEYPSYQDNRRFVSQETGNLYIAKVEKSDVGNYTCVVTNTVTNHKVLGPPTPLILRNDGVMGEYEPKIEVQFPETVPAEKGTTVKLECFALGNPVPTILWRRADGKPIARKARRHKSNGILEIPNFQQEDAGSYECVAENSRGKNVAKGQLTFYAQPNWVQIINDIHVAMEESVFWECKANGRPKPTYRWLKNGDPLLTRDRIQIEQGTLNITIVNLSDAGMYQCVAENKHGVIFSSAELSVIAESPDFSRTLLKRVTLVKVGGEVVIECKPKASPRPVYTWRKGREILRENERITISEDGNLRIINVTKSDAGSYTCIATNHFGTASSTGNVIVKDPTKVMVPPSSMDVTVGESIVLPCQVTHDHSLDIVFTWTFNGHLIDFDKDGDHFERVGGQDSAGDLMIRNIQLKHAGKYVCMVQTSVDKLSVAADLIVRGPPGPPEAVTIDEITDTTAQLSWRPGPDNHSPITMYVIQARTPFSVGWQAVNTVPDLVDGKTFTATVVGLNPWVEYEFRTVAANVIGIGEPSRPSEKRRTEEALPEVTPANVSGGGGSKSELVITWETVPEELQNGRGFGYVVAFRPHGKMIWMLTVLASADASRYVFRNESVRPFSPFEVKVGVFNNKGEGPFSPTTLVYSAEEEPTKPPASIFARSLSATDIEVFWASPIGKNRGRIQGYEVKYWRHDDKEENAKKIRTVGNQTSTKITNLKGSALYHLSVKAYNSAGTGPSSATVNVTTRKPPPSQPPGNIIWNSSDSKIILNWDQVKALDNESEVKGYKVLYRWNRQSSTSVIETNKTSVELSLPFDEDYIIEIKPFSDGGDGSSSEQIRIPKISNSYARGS

Row | Molecule | binding [1] | binding [2]
1 | huAPP695 (pSFV-huAPP695), on HEK293 cells (from UniProt P05067-4 18-695) | binds | –
2 | amyloid-beta precursor protein (endogenous in HEK293 cells) (from UniProt P05067 18-770) | – | binds
3 | FLAG-mCntn4 (full-length pcDNA3.1-FLAG-mCntn4), on HEK293 cells (protein, UniProt Q69Z26 19-1000) DDYTLHGPVFVQEPSHVMFPLDSEEKKVKLSCEVKGNPKPHIRWKINGTDVDIGMDFRYSVVDGSLLINNPNKTQDAGTYQCIATNSFGTIVSREAKLQFAYLENFKTRTRSTVSVRRGQGMVLLCGPPPHSGELSYAWIFNEYPSYQDNRRFVSQETGNLYIAKVEKSDVGNYTCVVTNTVTNHKVLGPPTPLILRNDGVMGEYEPKIEVQFPETVPAEKGTTVKLECFALGNPVPTILWRRADGKPIARKARRHKSNGILEIPNFQQEDAGSYECVAENSRGKNVAKGQLTFYAQPNWVQIINDIHVAMEESVFWECKANGRPKPTYRWLKNGDPLLTRDRIQIEQGTLNITIVNLSDAGMYQCVAENKHGVIFSSAELSVIAESPDFSRTLLKRVTLVKVGGEVVIECKPKASPRPVYTWRKGREILRENERITISEDGNLRIINVTKSDAGSYTCIATNHFGTASSTGNVIVKDPTKVMVPPSSMDVTVGESIVLPCQVTHDHSLDIVFTWTFNGHLIDFDKDGDHFERVGGQDSAGDLMIRNIQLKHAGKYVCMVQTSVDKLSVAADLIVRGPPGPPEAVTIDEITDTTAQLSWRPGPDNHSPITMYVIQARTPFSVGWQAVNTVPDLVDGKTFTATVVGLNPWVEYEFRTVAANVIGIGEPSRPSEKRRTEEALPEVTPANVSGGGGSKSELVITWETVPEELQNGRGFGYVVAFRPHGKMIWMLTVLASADASRYVFRNESVRPFSPFEVKVGVFNNKGEGPFSPTTLVYSAEEEPTKPPASIFARSLSATDIEVFWASPIGKNRGRIQGYEVKYWRHDDKEENAKKIRTVGNQTSTKITNLKGSALYHLSVKAYNSAGTGPSSATVNVTTRKPPPSQPPGNIIWNSSDSKIILNWDQVKALDNESEVKGYKVLYRWNRQSSTSVIETNKTSVELSLPFDEDYIIEIKPFSDGGDGSSSEQIRIPKISNSYARGS | binds | –
